Percent effect of library compounds

Amino acid sequences for entries named in this document (tags omitted). Residues count along the entry.
UniProt P9WFT3, whole entry: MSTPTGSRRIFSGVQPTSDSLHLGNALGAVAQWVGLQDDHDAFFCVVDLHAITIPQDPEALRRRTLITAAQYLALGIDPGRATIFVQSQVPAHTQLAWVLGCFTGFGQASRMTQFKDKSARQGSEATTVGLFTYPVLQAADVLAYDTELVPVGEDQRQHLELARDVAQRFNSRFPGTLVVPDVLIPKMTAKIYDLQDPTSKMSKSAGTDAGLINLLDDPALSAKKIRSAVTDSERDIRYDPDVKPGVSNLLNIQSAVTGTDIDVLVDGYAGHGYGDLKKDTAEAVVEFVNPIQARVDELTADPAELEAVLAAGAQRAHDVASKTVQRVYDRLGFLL
UniProt P9WPC5, whole entry: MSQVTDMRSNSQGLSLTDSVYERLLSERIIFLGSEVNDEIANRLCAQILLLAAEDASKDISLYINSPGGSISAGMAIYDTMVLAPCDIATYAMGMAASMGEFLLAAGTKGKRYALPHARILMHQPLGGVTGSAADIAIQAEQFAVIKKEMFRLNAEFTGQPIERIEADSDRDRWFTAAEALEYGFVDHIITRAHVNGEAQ
UniProt P9WPC3, whole entry partner: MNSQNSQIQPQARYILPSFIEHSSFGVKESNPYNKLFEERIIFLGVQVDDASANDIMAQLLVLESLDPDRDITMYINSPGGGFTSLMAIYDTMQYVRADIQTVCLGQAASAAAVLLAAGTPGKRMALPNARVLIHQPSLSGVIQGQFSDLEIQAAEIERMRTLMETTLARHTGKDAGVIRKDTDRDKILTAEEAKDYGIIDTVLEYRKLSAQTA
UniProt Q4DA54, 1-478: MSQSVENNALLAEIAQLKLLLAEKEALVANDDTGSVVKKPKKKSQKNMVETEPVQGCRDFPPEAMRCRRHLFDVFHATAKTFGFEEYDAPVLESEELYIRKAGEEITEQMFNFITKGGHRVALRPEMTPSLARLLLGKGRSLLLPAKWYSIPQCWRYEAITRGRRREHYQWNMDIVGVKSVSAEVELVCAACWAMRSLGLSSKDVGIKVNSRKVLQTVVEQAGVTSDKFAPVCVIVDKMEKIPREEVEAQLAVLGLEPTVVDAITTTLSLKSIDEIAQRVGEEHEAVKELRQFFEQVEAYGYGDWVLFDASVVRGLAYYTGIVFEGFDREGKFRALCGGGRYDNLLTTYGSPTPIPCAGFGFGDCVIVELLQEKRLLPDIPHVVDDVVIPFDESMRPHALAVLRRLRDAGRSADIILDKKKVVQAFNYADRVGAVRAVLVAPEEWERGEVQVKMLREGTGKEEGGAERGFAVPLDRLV

From ChEMBL document CHEMBL3988442, “University of Dundee, Small-Polar-MMV Screening Library” (2021).

A: 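Tryptophan-tRNA ligase, Mycobacterium tuberculosis (UniProt P9WFT3). Enzyme assay of tryptophanyl-tRNA synthetase; the read-out is not stated. Tested at 10 µM. Direction is not recorded; retested compounds ran higher, which suggests that high means inhibition. Size under these conditions: about 65,000 compounds, about 64 of them at 50% or above in at least one test.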
B: 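ClpP1P2, Mycobacterium tuberculosis (UniProt P9WPC5 and UniProt P9WPC3). Protease assay of ClpP1P2, read by the AMC dye that it sets free. Tested at 50 µM. Direction is inferred from only a few compounds that gave an IC50; most scored high, so higher reads as stronger inhibition. Most other retested compounds had strongly negative values. Of about 69,000 compounds tested this way, about 10 (0.015%) reached 50% or more in at least one test.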
C: 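Histidine-tRNA ligase, Trypanosoma cruzi CL Brener (UniProt Q4DA54). Enzyme assay of histidyl-tRNA synthetase; the read-out is not stated. Concentration: 30 µM. Higher reads as stronger inhibition (inferred: compounds with an IC50 in retests scored well above the rest). Size under these conditions: about 69,000 compounds, about 31 of them at 50% or above in at least one test.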

The filed quantity is “Percent Effect” (%).
The record does not define 0% and 100%; most values in the screen are far below 50% and negative numbers occur (in some assays of this library far below -100).
This is an unselected part of the compounds tested.

{"compound": "CCN(Cc1c(F)cccc1F)Cn1nc(C)c2c(C)onc2c1=O", "A": -2.224, "B": 6.615, "C": -0.8596}
{"compound": "CC(C)c1nsc(N2CCn3c(nnc3C(F)(F)F)C2)n1", "A": -5.759, "B": -4.383, "C": 6.806}
{"compound": "Cn1ncnc1-c1ccnc(N2CCC(C(O)c3cccs3)CC2)n1", "stereo": "stereo not shown", "A": -2.252, "B": -4.197, "C": 4.217}
{"compound": "Cc1ccccc1-c1cncc(C2CCN(C3CCOCC3)CC2)n1", "B": -3.56, "C": 8.511}
{"compound": "CCC1=N[C@@]2(CC[C@@H]3CN(C(=O)NCc4ccccc4C)C[C@@H]32)C(=O)N1", "A": -2.063, "B": -1.017, "C": 9.244}
{"compound": "CN(CC(N)=O)S(=O)(=O)c1ccc(F)cc1F", "A": 0.404, "B": -3.968, "C": -12.24}
{"compound": "CCN(C)C(=O)c1cc(-c2cn(C(C)C)cn2)n2ccccc12", "A": 11.11, "B": -11.32, "C": 6.329}
{"compound": "C1CCCN(c2nc(C3CC3)ns2)CC1", "A": -4.063, "B": -5.624, "C": 5.785}
{"compound": "CC1CCCCN1C(=O)CCc1nnc(-c2ccccc2)o1", "stereo": "stereo not shown", "A": -2.98, "B": -1.078, "C": 2.762}
{"compound": "Cn1nc(CN2CCCCC2)c2c1CN(C(=O)c1ccoc1)C2", "A": -0.7538, "B": 11.51, "C": 0.8}
{"compound": "O=C1CCN(C(=O)CCc2cc(Br)cs2)CCN1", "A": -4.509, "B": 1.182, "C": -0.578}
{"compound": "CCN1CC(COC(C)(C)C)Oc2ccncc2S1(=O)=O", "stereo": "stereo not shown", "B": 0.1969, "C": 3.468}
{"compound": "CC(C)(C)c1nc(CN2CCc3onc(-c4cccc(F)c4)c3C2)no1", "A": 2.415, "B": -5.49, "C": 15.2}
{"compound": "Cc1cc(C(C)NC(=O)N2CCC(n3cncn3)CC2)c(C)s1", "stereo": "stereo not shown", "A": 2.282, "B": 1.254, "C": 0.7519}
{"compound": "Cc1nn(C)c(C)c1CC(=O)N1CCCC(n2cccn2)C1", "stereo": "stereo not shown", "A": -0.2924, "B": -3.012, "C": 0.7576}
{"compound": "CCSCc1csc(-c2ccc(S(C)(=O)=O)cc2)n1", "A": -2.168, "B": -9.206, "C": 3.097}
{"compound": "CC(C)Nc1ncnc2c1CCN(C(=O)c1ccncc1F)CC2", "A": 3.923, "B": 4.994, "C": 8.287}
{"compound": "CCNC(=O)NCc1ccnc(N(C)C)n1", "A": -1.698, "B": -10.23, "C": 6.494}
{"compound": "Cc1cnn(CC2CCN(CC(O)c3ccccc3Cl)CC2)c1", "stereo": "stereo not shown", "A": -7.038, "B": -0.8274, "C": 5.419}
{"compound": "Clc1cccnc1N1CCC(NCc2cccc3cn[nH]c23)C1", "stereo": "stereo not shown", "A": 3.534, "B": -12.36, "C": 2.105}
{"compound": "CC(=O)NCCC(=O)NCCCOc1c(C)cccc1C", "A": 2.812, "B": 9.962, "C": 4.255}
{"compound": "O=C(Nc1ccc(F)cc1)C1CSCN1", "stereo": "stereo not shown", "A": -0.5825, "B": 10.55, "C": 6.931}
{"compound": "CC(C)(O)CSCCNCc1ccc(Cl)c2cccnc12", "A": 4.459, "B": 9.306, "C": 3.191}
{"compound": "O=C(O)c1cccnc1CN1CCCCC1CCc1ccccn1", "stereo": "stereo not shown", "A": -6.578, "B": -4.974, "C": 3.483}
{"compound": "Nc1ccnc(-c2cc(NC3CCNCC3)nc3[nH]ccc23)c1", "A": 11.81, "B": -12.65, "C": 4.04}
{"compound": "Cc1cc(=O)[nH]cc1C(=O)N1CCN(C)c2ccccc2C1", "A": 3.671, "B": -4.85, "C": 12}

Once more, the final 2:

{"compound": "Nc1ccnc(-c2cc(NC3CCNCC3)nc3[nH]ccc23)c1", "A": 11.81, "B": -12.65, "C": 4.04}
{"compound": "Cc1cc(=O)[nH]cc1C(=O)N1CCN(C)c2ccccc2C1", "A": 3.671, "B": -4.85, "C": 12}